# According to article PMC7819943, “Rice protein-binding microarrays: a tool to detect cis-acting elements near promoter regions in rice”:
# Protein sequences, listed by entry. Tags and fused reporters are not part of them.
# UniProt Q0JBA9, entry or part of it: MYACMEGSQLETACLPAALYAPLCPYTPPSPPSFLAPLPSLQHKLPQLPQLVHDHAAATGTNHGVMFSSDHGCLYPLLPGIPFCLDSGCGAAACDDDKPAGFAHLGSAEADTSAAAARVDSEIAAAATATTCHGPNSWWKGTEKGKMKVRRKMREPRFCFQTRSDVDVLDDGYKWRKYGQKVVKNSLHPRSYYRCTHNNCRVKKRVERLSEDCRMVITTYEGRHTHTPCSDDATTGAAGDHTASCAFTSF
# The list shows a part of the results.
# Target: OsWRKY34 (Oryza sativa, UniProt Q0JBA9 1-250)
# Experiment: protein-binding microarray (RPBM); PBS, 2% BSA, 51.3 ng/ul salmon testes DNA, 50 uM zinc acetate, 200 nM TF, 25 C, 1 h; high values mean tight binding
# Conditions: protein: recombinant; tags: N-terminal polyhistidine and DsRed monomer fusion (pET32a); label: CyDye5-dUTP incorporated in the synthesized complementary strand; 3' TTTTT single-stranded linker to array surface; dsDNA, one strand shown
# Method in brief: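 Transcription factors were made in E. coli BL21-CodonPlus as N-terminal fusions to a polyhistidine tag and DsRed, then purified on Ni–NTA. After primer extension with Cy5-dUTP and blocking with 2% BSA, a custom Agilent array was exposed for 1 h at 25 °C to 200 nM protein in PBS, 2% BSA, salmon testes DNA and 50 µM zinc acetate. Washed arrays were scanned on an Axon 4000B, and the binding signal is per-feature fluorescence intensity in arbitrary units.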
row,Sequence,binding signal
1,GCCCGCCGCGGCGCCGCCCTGTGTGCCGCCGCCGCTGACTCGGAGTCACCTAGTGCAG,8320 fluorescence intensity (a.u.)
2,CGCCAGCGTCTCCCCGTAGGTCAGTCTCGCGCCGCCGCCACGGAGTCACCTAGTGCAG,8030 fluorescence intensity (a.u.)
3,CTATGATTTTTTCCTTTCCCGCTTGCAGAGTCTTAAAGTACGGAGTCACCTAGTGCAG,10100 fluorescence intensity (a.u.)
4,GTTCGTCTTACAGTCAGCTACCATCTCACTCCGTACCATTCGGAGTCACCTAGTGCAG,8080 fluorescence intensity (a.u.)
5,GTACTCACTCTCAGTGTCACTCACTTCACTGCTTACACCGCGGAGTCACCTAGTGCAG,9970 fluorescence intensity (a.u.)
6,AGACAGGCAATCCCTCCTTCTTTAGTTGTTGTTTTTTAAACGGAGTCACCTAGTGCAG,9960 fluorescence intensity (a.u.)
7,CAATGTTGTCTTGACTTTTTTTTAACGTTTAACCATTTGTCGGAGTCACCTAGTGCAG,8940 fluorescence intensity (a.u.)
8,CGACCGCCCAGGCGCCCACCGCCTCCGCCGCTCGCTTCACCGGAGTCACCTAGTGCAG,8290 fluorescence intensity (a.u.)
9,CTCTAATTATAATACCATTATTTGGCACCGAACTTTATCACGGAGTCACCTAGTGCAG,8840 fluorescence intensity (a.u.)
10,CTTGTCCCTTGCTCCCATTCACCACCAGAAAATATACTTTCGGAGTCACCTAGTGCAG,8050 fluorescence intensity (a.u.)
11,TCTCGTTTGTGGCTTCGCTTGCATAGTTGCTGTATCTTTCCGGAGTCACCTAGTGCAG,8640 fluorescence intensity (a.u.)
12,GTGTGCGTGCGTGGCTAACTCCTCCTCACCCTCGCTCGATCGGAGTCACCTAGTGCAG,8180 fluorescence intensity (a.u.)
13,TGTCCTTCTTCTTCGCTATTATGCTTTCTTTTCCTTTTTACGGAGTCACCTAGTGCAG,8060 fluorescence intensity (a.u.)
14,TATATATACATATGCCTATACTATACTCCCTCCGTTAAAACGGAGTCACCTAGTGCAG,8870 fluorescence intensity (a.u.)
15,TGGAAAGGGTAGGAGGGTTGGATATATGGTAGTTGGGGAACGGAGTCACCTAGTGCAG,8920 fluorescence intensity (a.u.)
16,GGTGCTCCGCCTCCCGGGGCAGGGTTTCAAGAGGGTGGGTCGGAGTCACCTAGTGCAG,10700 fluorescence intensity (a.u.)
17,CCTCGCCCTTGCCTCGTTCCTCACCCATCCTTCCCTCTCGCGGAGTCACCTAGTGCAG,9670 fluorescence intensity (a.u.)
18,ACACCGGCTATTTTTACATTTCACCACTAATCATGCATCTCGGAGTCACCTAGTGCAG,9050 fluorescence intensity (a.u.)
19,AATGTTTGATGTGACAAAATTTCTAGGGTGGGATCTAAACCGGAGTCACCTAGTGCAG,9190 fluorescence intensity (a.u.)
20,GTTCTTAAGTTTTTTCATTTATTACATGTCAAAAAGTTTTCGGAGTCACCTAGTGCAG,8490 fluorescence intensity (a.u.)
21,GGTGGTTTGACGATCGTTCGTGCAGGTACAACTACATATCCGGAGTCACCTAGTGCAG,8650 fluorescence intensity (a.u.)

# Some of the entries above in a different format.
row | Sequence | binding signal
4 | GTTCGTCTTACAGTCAGCTACCATCTCACTCCGTACCATTCGGAGTCACCTAGTGCAG | 8080 fluorescence intensity (a.u.)
14 | TATATATACATATGCCTATACTATACTCCCTCCGTTAAAACGGAGTCACCTAGTGCAG | 8870 fluorescence intensity (a.u.)

# Remaining list, next part

row,Sequence,binding signal
1,GAAACAGCTCTATATGTATTTCTACTGGTACTACACCTATCGGAGTCACCTAGTGCAG,8480 fluorescence intensity (a.u.)
2,ATGTAGTATTCTTTAACTCCATCATCACACTTTGGCCACCCGGAGTCACCTAGTGCAG,8050 fluorescence intensity (a.u.)
3,TGGTTATGTCATGTCCTTTTGCTTACATATTAGCAACTCGCGGAGTCACCTAGTGCAG,10200 fluorescence intensity (a.u.)
4,GCTGTTTTCTTCTACATTGCGTCCGCGTGGCAATCCAGTCCGGAGTCACCTAGTGCAG,8980 fluorescence intensity (a.u.)
5,GGATGCATGCTGATGATATATGCTCCTTTTCTTTTGTTTCCGGAGTCACCTAGTGCAG,9470 fluorescence intensity (a.u.)
6,CGTGCCCTACGCCGCTGCTGTTCGTCGCCCGGTCTCTAGTCGGAGTCACCTAGTGCAG,11200 fluorescence intensity (a.u.)
7,AGGTGGAGGTGGAGCGGGTGGTTGTCCGGCGTCAGGTTGACGGAGTCACCTAGTGCAG,8280 fluorescence intensity (a.u.)
8,CTAGGCTGTGTTGTTGTGTTCTTAGGTGAGGATTGGAAAACGGAGTCACCTAGTGCAG,8050 fluorescence intensity (a.u.)
9,CACGTAATCGCGAACGCGCGACATGTACGCACAGCCACCGCGGAGTCACCTAGTGCAG,8140 fluorescence intensity (a.u.)
10,AGATGCTGATATACACACACAGACACACAATTTCTTTTCTCGGAGTCACCTAGTGCAG,9670 fluorescence intensity (a.u.)
11,GCTGGCTACCAATCAGCTGCTTCTCAGAATCTTAAGCTCCCGGAGTCACCTAGTGCAG,8590 fluorescence intensity (a.u.)
12,AACTACAGTTATCTGTTCGTTTTGGATGGTTATCTGGTGACGGAGTCACCTAGTGCAG,8430 fluorescence intensity (a.u.)
13,ATGGTTTTTAATTTTATTTTTTATATATGCTTGACATGTGCGGAGTCACCTAGTGCAG,8760 fluorescence intensity (a.u.)
14,CTCCATTTTTTGCCATACACGGACCGCACCACATCGTCCGCGGAGTCACCTAGTGCAG,10900 fluorescence intensity (a.u.)
15,CGTCCCAACCCCGCGGCCGCTTCGTTCTTGGTCGTCCTCGCGGAGTCACCTAGTGCAG,14200 fluorescence intensity (a.u.)
16,GTCTCTATGTCTCTATTAACGTATTTTGTAATTAGTTTTTCGGAGTCACCTAGTGCAG,9780 fluorescence intensity (a.u.)
17,AGGCGACCTCACCTACGCGCGCGGCGCGCCCCTGGCCATGCGGAGTCACCTAGTGCAG,8730 fluorescence intensity (a.u.)
18,TTGTTTCGTTTGGTCAAACATGGACCAGATTATTCTAAACCGGAGTCACCTAGTGCAG,8890 fluorescence intensity (a.u.)
19,TATTAAAACCTCCAAATTCCGCTTGCAAGATTGTGTTTTCCGGAGTCACCTAGTGCAG,8120 fluorescence intensity (a.u.)
20,ACGTGGCACTCTCTCGAGAGCTCCCGCCCGCCTATATAAACGGAGTCACCTAGTGCAG,9940 fluorescence intensity (a.u.)
21,TGGACGCCGTCGCCCTCAACTCCCTTCTCTCTGTCATGTGCGGAGTCACCTAGTGCAG,8380 fluorescence intensity (a.u.)
